No constants are given. Whether binding was seen depends on the method and setting. In cells and extracts the contact can be indirect. Some entries that bind do so weakly or less than the wild type. Sequences can lack the tags named with a protein.
Columns and labels:
[1] = target: endogenous PPARγ in differentiating OP9 cells (UniProt P37238); assay: co-IP with anti-GFP monoclonal antibody, detection with anti-PPARγ antibody (FIG. 7C)
[2] = target: endogenous PPARγ in differentiating OP9 cells (UniProt P37238); assay: co-IP with anti-GFP monoclonal antibody from OP9 cells transduced with Ad-GFP-CCPG, detection with anti-PPARγ antibody

By UniProt entry, the sequences of proteins in these tests, tags left out.
UniProt P37238: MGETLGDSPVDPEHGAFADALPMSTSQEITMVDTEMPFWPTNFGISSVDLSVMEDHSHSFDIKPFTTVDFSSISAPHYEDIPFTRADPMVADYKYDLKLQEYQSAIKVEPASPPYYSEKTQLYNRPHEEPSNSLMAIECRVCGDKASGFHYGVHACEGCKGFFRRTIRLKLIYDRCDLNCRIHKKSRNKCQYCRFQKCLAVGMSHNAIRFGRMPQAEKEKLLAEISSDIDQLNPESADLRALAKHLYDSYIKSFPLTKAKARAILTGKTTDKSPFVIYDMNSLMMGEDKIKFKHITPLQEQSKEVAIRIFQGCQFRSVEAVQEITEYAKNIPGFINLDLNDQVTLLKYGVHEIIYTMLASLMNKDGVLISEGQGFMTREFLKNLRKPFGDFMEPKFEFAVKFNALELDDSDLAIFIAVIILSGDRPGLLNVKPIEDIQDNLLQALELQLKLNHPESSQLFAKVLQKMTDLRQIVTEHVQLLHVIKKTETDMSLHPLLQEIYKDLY

binding [1]: binds | binding [2]: binds
B1: GFP-tagged CCPG (GFP-CCPG) (protein, not shown: large carriers)
chain: MGVRGLQGFVGSTCPHICTIVNIHELAERHRNKYPGCTPTIVVDAMCCLRYWYTAESWVCGGQWREYYCALRNFVAAFTSAGIKLIFFFDGMVEPGKRDEWVKRRLKNNREISKIFHYIKSKRDQPGRNMFFIPSGLAIFTRFALKTLGQETFCSLQEADYEVASYGLQHNCLGILGEDTDYLIYDTCPYFSIGDLCLESLQTIMLCREKLCESLGLRVADLPLLACLLGNDITPESMFESFRYKCLSSYASVKENAGKKGNIILAVSDYISKVLHLYQGEKKIEEMLPLGPNKALFYKGVTSYLLPGQKSPWLVQKPKGMITDKQQMVSLNPESKQEVPMCIDPEFKQEVPVCTNPESMQEVPMCMDPEPNQEASMCTDPESKQEVPMCTDSESKPEVSQYTNPESKQKLPSGIDTEFNLEALMCTHPEFKQEDVMDMEPEIKQVTMVSESEILKVARMHHVHSESYLVYNILSSGEIECSNTLEDELDQALPSQAFIYRPVRQRVYALLLGDWKDGASTGPVVKEWFVYPGNSLKHPDLVRPLQMTVQGGTPSLEVLWLSQEPAVQAQRLDTLLACFNLSSSREELQAVESPLRALCCLLIYLFVQVDTLSLEDLHAFIAQALCLQGKSTSQLMHLQLDYINSRAVQLGSLLVRGLTTLVLVNSACGFPWTTSEFMPWNVFDGKLFHQKYLQSEKGYAVEVLLEQNRSWLTKFHNLKAVVCKACSKENRRIVGRTHWDSPYTGRQGRQGYSSYRTDSTHGHSGQSWRNQGSGGRQHERNHWRRY

Source: patent publication US20080090257A1
